Measured values published in patent US20240376224A1 (University of California, published 2024).
Results are given in words; binding and its absence hold for the method and conditions named. Some binding calls cover weakened binding; strength is not graded here. For some assays here: Sequences can lack the tags named with a protein.

Experiments:
[1] = biological target: T1, c-CDCP1 (Cut 3) ectodomain (human, UniProt Q9H5V8 30-369; Q9H5V8 370-667); experiment: sandwich ELISA; IgG CL03 as capture antibody, anti-CDCP1 polyclonal Ab (R&D AF2666) as detection
T1 construct: Made by co-transfection of NTF and CTF plasmids, purified by Ni-NTA (tag not described); also called cCDCP1 ECD cut 3
T1 sequence 1: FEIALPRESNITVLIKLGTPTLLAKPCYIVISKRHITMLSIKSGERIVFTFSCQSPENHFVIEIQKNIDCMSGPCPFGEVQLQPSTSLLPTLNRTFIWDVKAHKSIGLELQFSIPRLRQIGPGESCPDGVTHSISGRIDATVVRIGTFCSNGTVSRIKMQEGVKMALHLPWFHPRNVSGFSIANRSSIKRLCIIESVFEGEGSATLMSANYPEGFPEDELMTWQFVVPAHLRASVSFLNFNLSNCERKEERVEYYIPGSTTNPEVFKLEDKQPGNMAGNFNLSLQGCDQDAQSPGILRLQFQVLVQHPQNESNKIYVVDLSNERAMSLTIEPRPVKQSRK
T1 sequence 2: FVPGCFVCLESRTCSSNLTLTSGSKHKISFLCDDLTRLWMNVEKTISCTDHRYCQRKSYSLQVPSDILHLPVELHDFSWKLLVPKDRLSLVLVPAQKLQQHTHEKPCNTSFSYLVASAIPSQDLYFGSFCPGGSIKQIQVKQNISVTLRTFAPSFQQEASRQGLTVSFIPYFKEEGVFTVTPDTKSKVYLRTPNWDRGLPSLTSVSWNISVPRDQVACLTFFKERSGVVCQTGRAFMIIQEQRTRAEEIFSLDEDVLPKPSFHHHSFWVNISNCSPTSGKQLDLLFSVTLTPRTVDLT

[2] = biological target: T2, c-CDCP1 (Cut 1) ectodomain (human) (UniProt Q9H5V8); experiment: as above
T2 sequence 1: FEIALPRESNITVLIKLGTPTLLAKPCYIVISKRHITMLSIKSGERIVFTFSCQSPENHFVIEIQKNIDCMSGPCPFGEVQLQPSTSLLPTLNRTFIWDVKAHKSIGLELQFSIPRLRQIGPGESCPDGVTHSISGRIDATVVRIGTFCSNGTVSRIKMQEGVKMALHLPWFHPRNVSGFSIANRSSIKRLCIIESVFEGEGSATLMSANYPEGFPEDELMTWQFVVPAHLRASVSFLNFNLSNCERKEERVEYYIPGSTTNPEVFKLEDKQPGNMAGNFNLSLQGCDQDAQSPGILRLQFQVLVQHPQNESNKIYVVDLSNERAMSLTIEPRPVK
T2 sequence 2: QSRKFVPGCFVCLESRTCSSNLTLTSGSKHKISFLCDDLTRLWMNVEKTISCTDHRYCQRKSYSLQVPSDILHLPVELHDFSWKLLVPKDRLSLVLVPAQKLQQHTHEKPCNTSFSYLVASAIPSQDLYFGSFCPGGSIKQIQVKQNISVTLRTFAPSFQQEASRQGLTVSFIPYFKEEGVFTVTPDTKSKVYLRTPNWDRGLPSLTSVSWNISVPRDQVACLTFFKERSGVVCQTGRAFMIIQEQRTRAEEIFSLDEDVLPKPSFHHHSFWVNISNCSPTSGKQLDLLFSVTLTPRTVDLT

[3] = biological target: T3, c-CDCP1 (Cut 2) ectodomain (human) (UniProt Q9H5V8); experiment: as above
T3 sequence 1: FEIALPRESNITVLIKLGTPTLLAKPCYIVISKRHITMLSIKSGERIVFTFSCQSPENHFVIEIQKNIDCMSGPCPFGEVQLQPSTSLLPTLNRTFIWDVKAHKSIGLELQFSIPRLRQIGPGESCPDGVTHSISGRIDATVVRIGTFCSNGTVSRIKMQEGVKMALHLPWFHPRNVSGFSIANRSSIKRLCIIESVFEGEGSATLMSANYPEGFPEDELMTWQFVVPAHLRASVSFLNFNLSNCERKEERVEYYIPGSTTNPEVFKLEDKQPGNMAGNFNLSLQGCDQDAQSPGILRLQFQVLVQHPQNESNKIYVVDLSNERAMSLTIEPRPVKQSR
T3 sequence 2: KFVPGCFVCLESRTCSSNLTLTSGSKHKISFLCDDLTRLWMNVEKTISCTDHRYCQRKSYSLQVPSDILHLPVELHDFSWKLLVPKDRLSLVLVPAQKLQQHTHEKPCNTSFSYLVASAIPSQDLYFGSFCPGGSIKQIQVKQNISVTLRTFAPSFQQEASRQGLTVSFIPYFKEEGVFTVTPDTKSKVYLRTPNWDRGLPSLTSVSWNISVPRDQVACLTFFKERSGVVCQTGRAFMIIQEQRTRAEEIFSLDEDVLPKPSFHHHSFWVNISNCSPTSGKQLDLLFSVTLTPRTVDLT

c-CDCP1-Fc (Cut 1) = biological target: T4, c-CDCP1-Fc (Cut 1) (human, UniProt Q9H5V8 30-365; Q9H5V8 366-667); experiment: BLI (Octet), c-CDCP1-Fc (Cut 1) on the sensor, IgG CL03 at 100, 50, 25, 10, 5 nM
T4 construct: Co-transfection of NTF and CTF-Fc plasmids; not shown: Fc domain
T4 sequence 1: T2 sequence 1
T4 sequence 2: T2 sequence 2

c-CDCP1-Fc (Cut 2) = biological target: T5, c-CDCP1-Fc (Cut 2) (human, UniProt Q9H5V8 30-368; Q9H5V8 369-667); experiment: BLI (Octet), c-CDCP1-Fc (Cut 2) on the sensor, IgG CL03 at 100, 50, 25, 10, 5 nM
T5 construct: Co-transfection of NTF and CTF-Fc plasmids; not shown: Fc domain
T5 sequence 1: T3 sequence 1
T5 sequence 2: T3 sequence 2

c-CDCP1-Fc (Cut 3) = biological target: T6, c-CDCP1-Fc (Cut 3) (human, UniProt Q9H5V8 30-369; Q9H5V8 370-667); experiment: BLI (Octet), c-CDCP1-Fc (Cut 3) on the sensor, IgG CL03 at 100, 50, 25, 10, 5 nM
T6 construct: Co-transfection of NTF and CTF-Fc plasmids; not shown: Fc domain
T6 sequence 1: T1 sequence 1
T6 sequence 2: T1 sequence 2

[4] = biological target: T1, c-CDCP1 (Cut 3) ectodomain; experiment: sandwich ELISA, CL03 as capture antibody, antigen titrated (ng/mL), anti-CDCP1 polyclonal antibody for detection
[5] = biological target: T2, c-CDCP1 (Cut 1) ectodomain (human); experiment: as above
[6] = biological target: T3, c-CDCP1 (Cut 2) ectodomain (human); experiment: as above
[7] = biological target: T7, mouse c-CDCP1 (recombinant cleaved mouse CDCP1) (mouse) (UniProt Q5U462); experiment: BLI
T7 sequence 1: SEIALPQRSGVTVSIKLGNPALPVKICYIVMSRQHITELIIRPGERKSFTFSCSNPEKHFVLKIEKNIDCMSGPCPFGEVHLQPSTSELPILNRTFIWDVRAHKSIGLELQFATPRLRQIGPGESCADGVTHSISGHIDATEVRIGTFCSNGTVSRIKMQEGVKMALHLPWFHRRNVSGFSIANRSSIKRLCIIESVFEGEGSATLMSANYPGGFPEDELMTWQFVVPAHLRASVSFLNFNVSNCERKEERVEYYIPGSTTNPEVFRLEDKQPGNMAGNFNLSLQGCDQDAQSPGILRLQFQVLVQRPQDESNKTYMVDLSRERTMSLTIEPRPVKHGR
T7 sequence 2: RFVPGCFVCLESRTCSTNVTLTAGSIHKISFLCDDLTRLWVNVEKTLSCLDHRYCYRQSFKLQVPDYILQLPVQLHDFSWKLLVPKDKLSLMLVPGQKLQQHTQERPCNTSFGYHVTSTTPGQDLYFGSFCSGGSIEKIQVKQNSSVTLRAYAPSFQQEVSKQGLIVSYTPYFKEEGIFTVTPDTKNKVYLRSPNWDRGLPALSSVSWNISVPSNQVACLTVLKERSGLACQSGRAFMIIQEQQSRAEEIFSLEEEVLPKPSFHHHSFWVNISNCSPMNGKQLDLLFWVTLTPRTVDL

[8] = biological target: T7, mouse c-CDCP1 (recombinant cleaved mouse CDCP1) (mouse); experiment: BLI (Octet), Mouse c-CDCP1-Fc on the sensor, IgG 58 at 50, 16.7, 5.5, 1.9, 0.62 nM

Measured: binding

B1: CL03 IgG (antibody, V domains shown)
VH: EVQLVESGGGLVQPGGSLRLSCAASGFNFSSYSIHWVRQAPGKGLEWVASIYPYSGSTYYADSVKGRFTISADTSKNTAYLQMNSLRAEDTAVYYCARQSHSYYSHTWWVSYGMDYWGQGTLVTVSS
VL: DIQMTQSPSSLSASVGDRVTITCRASQSVSSAVAWYQQKPGKAPKLLIYSASSLYSGVPSRFSGSRSGTDFTLTISSLQPEDFATYYCQQSGQRPITFGQGTKVEIKR
notes: also called IgG CL03
binds: [1] | [2] | [3] | c-CDCP1-Fc (Cut 1) | c-CDCP1-Fc (Cut 2) | c-CDCP1-Fc (Cut 3) | [4] | [5] | [6]

B2: IgG 58 (antibody, V domains shown)
VH: EVQLVESGGGLVQPGGSLRLSCAASGFNVYSYSIHWVRQAPGKGLEWVASISSSSGSTSYADSVKGRFTISADTSKNTAYLQMNSLRAEDTAVYYCARYYWDPWQYASYSYLAFDYWGQGTLVTVSS
VL: MTQSPSSLSASVGDRVTITCRASQSVSSAVAWYQQKPGKAPKLLIYSASSLYSGVPSRFSGSRSGTDFTLTISSLQPEDFATYYCQQTYSGPITFGQGTKVEIKR
notes: Mouse cleaved-CDCP1-specific antibody; also called Ab58; IgG 0058
binds: [7] | [8]
